In the supplement of paper PMC10849652:
The other results are listed elsewhere or left out.

Chains of the proteins cited; added tags and fusions are not shown. Lines headed by an entry give the natural chain unless they say otherwise; changes in a name come on top.
UniProt Q2KHR2: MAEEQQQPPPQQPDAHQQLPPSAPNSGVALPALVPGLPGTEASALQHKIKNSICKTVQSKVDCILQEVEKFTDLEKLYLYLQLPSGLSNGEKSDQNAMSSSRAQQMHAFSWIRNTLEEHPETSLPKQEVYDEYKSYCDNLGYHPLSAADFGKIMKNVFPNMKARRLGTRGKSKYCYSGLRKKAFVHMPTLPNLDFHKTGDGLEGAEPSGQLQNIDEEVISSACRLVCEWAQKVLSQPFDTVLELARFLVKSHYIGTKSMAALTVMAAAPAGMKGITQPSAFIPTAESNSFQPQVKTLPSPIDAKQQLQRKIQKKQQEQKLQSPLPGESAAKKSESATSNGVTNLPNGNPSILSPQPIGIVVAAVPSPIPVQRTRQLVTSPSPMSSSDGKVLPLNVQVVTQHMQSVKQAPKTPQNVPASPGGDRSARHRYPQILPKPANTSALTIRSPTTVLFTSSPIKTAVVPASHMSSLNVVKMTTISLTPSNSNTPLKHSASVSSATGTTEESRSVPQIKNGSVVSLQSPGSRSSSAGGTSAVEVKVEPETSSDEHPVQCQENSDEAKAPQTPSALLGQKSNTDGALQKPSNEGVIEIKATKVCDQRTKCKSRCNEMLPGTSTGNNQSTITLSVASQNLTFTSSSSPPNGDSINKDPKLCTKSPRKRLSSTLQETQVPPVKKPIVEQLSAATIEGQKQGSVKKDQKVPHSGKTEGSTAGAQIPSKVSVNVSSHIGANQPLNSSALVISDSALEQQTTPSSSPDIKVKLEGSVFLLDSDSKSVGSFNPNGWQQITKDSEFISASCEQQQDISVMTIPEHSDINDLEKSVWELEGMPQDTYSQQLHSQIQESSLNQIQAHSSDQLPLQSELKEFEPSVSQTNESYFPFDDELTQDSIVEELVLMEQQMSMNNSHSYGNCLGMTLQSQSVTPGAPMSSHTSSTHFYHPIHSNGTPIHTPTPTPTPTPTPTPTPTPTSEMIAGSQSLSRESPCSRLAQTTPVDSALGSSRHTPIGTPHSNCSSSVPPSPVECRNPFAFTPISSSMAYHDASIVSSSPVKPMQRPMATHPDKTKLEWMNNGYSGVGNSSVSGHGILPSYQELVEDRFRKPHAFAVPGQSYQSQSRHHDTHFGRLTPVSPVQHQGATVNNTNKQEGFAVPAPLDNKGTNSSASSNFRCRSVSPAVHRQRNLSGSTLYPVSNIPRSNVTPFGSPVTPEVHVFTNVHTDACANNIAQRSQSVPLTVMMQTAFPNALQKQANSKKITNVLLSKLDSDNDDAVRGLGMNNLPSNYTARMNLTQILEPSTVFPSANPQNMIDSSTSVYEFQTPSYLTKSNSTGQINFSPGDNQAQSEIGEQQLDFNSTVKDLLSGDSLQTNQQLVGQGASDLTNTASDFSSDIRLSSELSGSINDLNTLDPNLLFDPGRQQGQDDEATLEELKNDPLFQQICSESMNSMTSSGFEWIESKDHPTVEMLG
UniProt Q5T8P6: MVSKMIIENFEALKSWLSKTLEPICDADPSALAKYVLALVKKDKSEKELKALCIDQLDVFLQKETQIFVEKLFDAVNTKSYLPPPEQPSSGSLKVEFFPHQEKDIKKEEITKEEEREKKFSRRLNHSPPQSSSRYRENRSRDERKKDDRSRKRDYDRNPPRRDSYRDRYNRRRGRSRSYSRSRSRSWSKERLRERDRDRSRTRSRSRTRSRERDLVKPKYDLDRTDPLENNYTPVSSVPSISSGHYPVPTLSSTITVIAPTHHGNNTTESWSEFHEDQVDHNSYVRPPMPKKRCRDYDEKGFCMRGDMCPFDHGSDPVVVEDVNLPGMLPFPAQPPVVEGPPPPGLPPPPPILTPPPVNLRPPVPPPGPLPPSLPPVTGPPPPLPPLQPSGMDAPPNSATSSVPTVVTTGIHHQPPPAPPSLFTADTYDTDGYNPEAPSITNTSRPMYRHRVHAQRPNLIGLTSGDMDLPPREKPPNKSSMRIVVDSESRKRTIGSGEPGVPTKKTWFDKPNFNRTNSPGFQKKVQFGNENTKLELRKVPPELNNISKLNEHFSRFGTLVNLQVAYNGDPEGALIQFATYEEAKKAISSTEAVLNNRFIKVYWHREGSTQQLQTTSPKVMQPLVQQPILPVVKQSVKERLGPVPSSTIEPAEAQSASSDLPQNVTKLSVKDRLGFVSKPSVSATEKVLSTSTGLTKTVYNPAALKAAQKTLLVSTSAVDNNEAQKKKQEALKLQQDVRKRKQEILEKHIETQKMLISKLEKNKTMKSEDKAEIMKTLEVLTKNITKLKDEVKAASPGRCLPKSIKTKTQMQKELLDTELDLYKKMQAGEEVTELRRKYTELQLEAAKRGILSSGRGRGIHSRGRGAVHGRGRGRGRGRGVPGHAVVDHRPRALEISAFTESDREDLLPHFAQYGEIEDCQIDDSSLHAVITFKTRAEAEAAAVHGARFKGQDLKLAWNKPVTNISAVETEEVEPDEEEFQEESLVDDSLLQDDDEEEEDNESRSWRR
UniProt Q92546: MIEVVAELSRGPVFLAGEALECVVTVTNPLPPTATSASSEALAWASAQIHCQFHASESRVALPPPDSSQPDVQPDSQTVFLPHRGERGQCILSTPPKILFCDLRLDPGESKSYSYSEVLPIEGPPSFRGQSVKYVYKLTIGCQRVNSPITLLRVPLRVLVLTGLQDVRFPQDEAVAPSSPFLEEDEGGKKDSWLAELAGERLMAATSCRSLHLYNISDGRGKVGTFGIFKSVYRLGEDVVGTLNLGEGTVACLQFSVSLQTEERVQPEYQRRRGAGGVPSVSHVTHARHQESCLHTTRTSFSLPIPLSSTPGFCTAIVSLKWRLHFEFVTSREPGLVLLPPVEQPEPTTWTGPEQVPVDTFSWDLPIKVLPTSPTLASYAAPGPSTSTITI
UniProt Q7LDG7: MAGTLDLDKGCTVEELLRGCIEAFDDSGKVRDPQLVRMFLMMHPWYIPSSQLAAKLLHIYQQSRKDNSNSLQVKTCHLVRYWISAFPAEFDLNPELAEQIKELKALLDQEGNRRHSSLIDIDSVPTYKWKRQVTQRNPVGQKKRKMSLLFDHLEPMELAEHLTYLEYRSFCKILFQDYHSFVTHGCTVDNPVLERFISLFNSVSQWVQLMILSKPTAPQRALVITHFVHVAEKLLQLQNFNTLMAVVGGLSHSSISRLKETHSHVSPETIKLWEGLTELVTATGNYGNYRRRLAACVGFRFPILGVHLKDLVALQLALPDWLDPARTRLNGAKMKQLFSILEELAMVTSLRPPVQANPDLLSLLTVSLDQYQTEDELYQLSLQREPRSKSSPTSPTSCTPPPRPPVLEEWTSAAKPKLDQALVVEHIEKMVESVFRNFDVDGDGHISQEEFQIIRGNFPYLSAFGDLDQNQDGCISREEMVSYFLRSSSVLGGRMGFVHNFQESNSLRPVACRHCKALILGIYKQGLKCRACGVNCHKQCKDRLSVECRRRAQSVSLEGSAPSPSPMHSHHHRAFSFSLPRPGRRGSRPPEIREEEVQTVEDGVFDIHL
UniProt Q96IC2: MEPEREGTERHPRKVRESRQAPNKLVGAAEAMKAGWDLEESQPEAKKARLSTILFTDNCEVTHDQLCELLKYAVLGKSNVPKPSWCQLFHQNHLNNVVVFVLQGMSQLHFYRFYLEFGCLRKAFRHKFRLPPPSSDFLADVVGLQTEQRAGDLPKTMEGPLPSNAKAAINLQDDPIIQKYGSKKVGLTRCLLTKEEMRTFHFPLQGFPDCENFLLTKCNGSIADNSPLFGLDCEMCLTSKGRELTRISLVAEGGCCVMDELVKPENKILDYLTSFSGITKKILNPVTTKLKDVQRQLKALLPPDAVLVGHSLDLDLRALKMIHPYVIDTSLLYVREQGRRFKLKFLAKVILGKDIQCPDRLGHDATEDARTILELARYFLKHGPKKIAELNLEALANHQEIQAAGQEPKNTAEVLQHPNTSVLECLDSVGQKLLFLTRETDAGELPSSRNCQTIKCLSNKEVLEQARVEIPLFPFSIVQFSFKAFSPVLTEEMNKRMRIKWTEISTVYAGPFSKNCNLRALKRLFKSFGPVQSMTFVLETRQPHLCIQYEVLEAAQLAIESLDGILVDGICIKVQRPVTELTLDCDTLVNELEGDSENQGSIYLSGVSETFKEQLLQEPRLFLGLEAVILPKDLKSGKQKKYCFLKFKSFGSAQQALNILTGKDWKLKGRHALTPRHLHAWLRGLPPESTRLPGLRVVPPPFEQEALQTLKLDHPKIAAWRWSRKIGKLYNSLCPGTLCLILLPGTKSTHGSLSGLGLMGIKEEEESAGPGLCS
UniProt Q9Y256: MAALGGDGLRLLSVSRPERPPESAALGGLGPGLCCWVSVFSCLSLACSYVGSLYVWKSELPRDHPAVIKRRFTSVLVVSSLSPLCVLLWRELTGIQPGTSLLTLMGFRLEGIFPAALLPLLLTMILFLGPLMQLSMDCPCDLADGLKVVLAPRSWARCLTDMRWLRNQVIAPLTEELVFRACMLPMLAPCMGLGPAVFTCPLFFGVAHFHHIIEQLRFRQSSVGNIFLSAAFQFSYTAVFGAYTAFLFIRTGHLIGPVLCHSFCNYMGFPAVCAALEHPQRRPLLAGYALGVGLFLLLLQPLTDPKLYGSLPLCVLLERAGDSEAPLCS
UniProt Q02833: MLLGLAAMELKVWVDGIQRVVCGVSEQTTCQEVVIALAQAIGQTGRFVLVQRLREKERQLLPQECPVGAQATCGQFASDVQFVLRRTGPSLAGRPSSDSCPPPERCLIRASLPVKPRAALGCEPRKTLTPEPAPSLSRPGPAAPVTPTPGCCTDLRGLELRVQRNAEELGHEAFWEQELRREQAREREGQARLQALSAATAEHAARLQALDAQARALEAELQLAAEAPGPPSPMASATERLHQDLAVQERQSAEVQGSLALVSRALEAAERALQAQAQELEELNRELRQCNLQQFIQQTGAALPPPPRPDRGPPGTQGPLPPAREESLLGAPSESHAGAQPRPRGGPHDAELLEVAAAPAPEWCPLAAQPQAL
UniProt Q6NUK4: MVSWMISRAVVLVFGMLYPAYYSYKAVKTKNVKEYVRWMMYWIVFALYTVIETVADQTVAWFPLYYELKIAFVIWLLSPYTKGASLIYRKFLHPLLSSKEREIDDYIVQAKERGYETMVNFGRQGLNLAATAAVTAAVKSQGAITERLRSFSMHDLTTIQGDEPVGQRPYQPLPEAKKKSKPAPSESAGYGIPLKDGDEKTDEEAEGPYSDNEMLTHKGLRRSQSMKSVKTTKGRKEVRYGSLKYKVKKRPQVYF
UniProt Q5T481: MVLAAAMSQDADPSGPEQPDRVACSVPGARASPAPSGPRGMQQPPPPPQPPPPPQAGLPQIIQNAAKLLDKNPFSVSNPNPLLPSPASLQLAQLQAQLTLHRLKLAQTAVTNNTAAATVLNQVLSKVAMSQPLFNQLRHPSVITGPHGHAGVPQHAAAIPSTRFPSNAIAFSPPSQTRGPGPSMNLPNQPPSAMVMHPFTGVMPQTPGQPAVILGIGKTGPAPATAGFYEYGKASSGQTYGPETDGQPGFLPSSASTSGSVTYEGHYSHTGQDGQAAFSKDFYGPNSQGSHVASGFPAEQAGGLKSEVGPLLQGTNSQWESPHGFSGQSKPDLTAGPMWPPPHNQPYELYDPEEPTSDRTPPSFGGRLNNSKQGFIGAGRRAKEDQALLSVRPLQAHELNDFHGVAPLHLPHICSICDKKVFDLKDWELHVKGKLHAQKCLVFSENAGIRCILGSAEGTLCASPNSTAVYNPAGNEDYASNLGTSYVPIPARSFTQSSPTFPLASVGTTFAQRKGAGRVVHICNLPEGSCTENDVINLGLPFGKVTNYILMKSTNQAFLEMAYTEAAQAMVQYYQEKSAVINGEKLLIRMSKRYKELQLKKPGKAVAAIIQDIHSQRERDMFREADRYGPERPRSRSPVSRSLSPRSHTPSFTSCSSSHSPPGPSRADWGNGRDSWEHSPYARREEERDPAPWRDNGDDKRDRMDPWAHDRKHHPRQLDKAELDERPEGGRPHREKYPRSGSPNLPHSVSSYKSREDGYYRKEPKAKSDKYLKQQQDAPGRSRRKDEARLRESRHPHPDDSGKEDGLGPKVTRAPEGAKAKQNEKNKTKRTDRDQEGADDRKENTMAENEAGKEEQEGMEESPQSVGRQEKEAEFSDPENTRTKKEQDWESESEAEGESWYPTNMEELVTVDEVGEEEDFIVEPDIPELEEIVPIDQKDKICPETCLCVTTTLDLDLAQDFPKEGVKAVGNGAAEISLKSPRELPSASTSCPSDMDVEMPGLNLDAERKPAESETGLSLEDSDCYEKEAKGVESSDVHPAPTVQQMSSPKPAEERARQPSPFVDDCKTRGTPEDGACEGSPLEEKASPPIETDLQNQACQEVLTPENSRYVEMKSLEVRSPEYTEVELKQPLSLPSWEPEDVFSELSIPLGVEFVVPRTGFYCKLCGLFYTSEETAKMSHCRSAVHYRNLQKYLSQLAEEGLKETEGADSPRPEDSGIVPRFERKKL

Columns and labels:
Assay in all cases: log2 fold change, soluble protein after heating vs DMSO (PISA); higher = thermal stabilisation; K562 lysate, 10 uM; active = over 0.2 and 3.5 SD of the protein, either way, in both replicates (recomputed)
[1] = compound: Cc1cn(-c2cc(NC(=O)c3ccc(C)c(Nc4nccc(-c5cccnc5)n4)c3)cc(C(F)(F)F)c2)cn1 [nilotinib]
Method in brief: (§1)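 A 30 min treatment with 10 μM compound was applied to crude K562 extract at 1 mg/mL protein in PBS pH 7.4 with 1 mM MgCl2. Heating for 3 min spanned 48°C-58°C, after which aliquots were pooled, adjusted to 0.5% NP-40 at 4°C and spun at 21,000xg for 90 min. TMTpro 16plex LC-MS/MS of the supernatant, with channel sums equalised, gave values recorded as log-two fold change in thermal stability against solvent controls, from duplicates.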

[2] = compound: Cc1nc(Nc2n[nH]c3c2CN(C(=O)N[C@H](CN(C)C)c2ccccc2)C3(C)C)c2sccc2n1
Method in brief: as §1

[3] = compound: Cc1nc(Nc2ncc(C(=O)Nc3c(C)cccc3Cl)s2)cc(N2CCN(CCO)CC2)n1 [dasatinib]
Method in brief: as §1

[4] = compound: Cc1ncc(-c2ccnc(Nc3ccc(S(C)(=O)=O)cc3)n2)n1C(C)C
Method in brief: as §1

[5] = compound: Cn1cc(-c2ccc3c(c2)CCN3C(=O)Cc2cccc(C(F)(F)F)c2)c2c(N)ncnc21
Method in brief: as §1

[6] = compound: Cn1cc(CNCC2CCN(c3ncc(C(=O)NO)cn3)CC2)c2ccccc21 [quisinostat]
Method in brief: as §1

[7] = compound: Cn1cncc1[C@@](N)(c1ccc(Cl)cc1)c1ccc2c(c1)c(-c1cccc(Cl)c1)cc(=O)n2C [tipifarnib]
Method in brief: as §1

[8] = compound: NC(=O)Nc1cc(-c2cccc(F)c2)sc1C(=O)N[C@H]1CCCNC1
Method in brief: as §1

[9] = compound: NC(=O)c1cnc(N[C@@H]2CCCC[C@@H]2N)nc1Nc1cccc(-n2nccn2)c1
Method in brief: as §1

[10] = compound: NC1(c2ccc(-c3nc4ccn5c(=O)[nH]nc5c4cc3-c3ccccc3)cc2)CCC1
Method in brief: as §1

Measured: log2 fold change

RFC4 (UniProt P35249)
inactive: [1] 0.001 | [2] -0.029 | [3] -0.068 | [4] -0.002 | [5] 0.047 | [6] -0.016 | [7] -0.004 | [8] 0.03 | [9] 0.015 | [10] -0.011

RBPJ (UniProt Q06330)
inactive: [1] 0.009 | [2] -0.037 | [3] 0.019 | [4] 0.016 | [5] 0 | [6] -0.075 | [7] 0.052 | [8] -0.015 | [9] -0.014 | [10] -0.003

RCOR3 isoform 3 (UniProt Q9P2K3)
inactive: [1] -0.016 | [2] -0.028 | [3] -0.052 | [4] 0.038 | [5] 0.01 | [6] 0.022 | [7] 0.011 | [8] 0.03 | [9] 0.029 | [10] 0.014

RFX7 (UniProt Q2KHR2)
inactive: [1] 0.084 | [2] 0.074 | [3] 0.157 | [4] -0.009 | [5] 0.012 | [6] -0.027 | [7] -0.174 | [8] 0.001 | [9] 0.047 | [10] -0.038

RBM12 (UniProt Q9NTZ6)
inactive: [1] -0.019 | [2] 0 | [3] -0.035 | [4] -0.023 | [5] -0.007 | [6] -0.002 | [7] -0.033 | [8] 0.002 | [9] 0.006 | [10] 0.02

RBM26 isoform 3 (UniProt Q5T8P6)
inactive: [1] 0.068 | [2] -0.004 | [3] -0.032 | [4] 0.17 | [5] -0.173 | [6] -0.06 | [7] 0.077 | [8] -0.019 | [9] -0.132 | [10] 0.111

RELCH isoform 2 (UniProt Q9P260)
inactive: [1] 0.014 | [2] -0.038 | [3] -0.1 | [4] -0.011 | [5] -0.007 | [6] -0.004 | [7] -0.031 | [8] -0.007 | [9] 0.02 | [10] -0.001

RBM27 (UniProt Q9P2N5)
inactive: [1] -0.022 | [2] 0.007 | [3] -0.035 | [4] 0.03 | [5] 0.035 | [6] 0.045 | [7] -0.015 | [8] -0.077 | [9] -0.008 | [10] 0.047

RFXAP (UniProt O00287)
inactive: [1] -0.028 | [2] 0.133 | [3] -0.008 | [4] -0.022 | [5] 0.021 | [6] -0.034 | [7] -0.113 | [8] -0.043 | [9] 0.029 | [10] 0.035

RGP1 (UniProt Q92546)
inactive: [1] -0.018 | [2] 0.065 | [3] -0.027 | [4] 0 | [5] -0.039 | [6] -0.098 | [7] -0.09 | [8] 0.099 | [9] 0.035 | [10] 0.078

RASGRP2 isoform 2 (UniProt Q7LDG7)
inactive: [1] -0.056 | [2] 0.118 | [4] 0.03 | [7] -0.011

REXO5 (UniProt Q96IC2)
inactive: [1] 0.052 | [2] -0.057 | [3] -0.009 | [4] -0.095 | [5] 0.087 | [7] 0.027 | [10] -0.087

Two successive records already listed, for reference:
RBM26 isoform 3 (UniProt Q5T8P6)
inactive: [1] 0.068 | [2] -0.004 | [3] -0.032 | [4] 0.17 | [5] -0.173 | [6] -0.06 | [7] 0.077 | [8] -0.019 | [9] -0.132 | [10] 0.111

RELCH isoform 2 (UniProt Q9P260)
inactive: [1] 0.014 | [2] -0.038 | [3] -0.1 | [4] -0.011 | [5] -0.007 | [6] -0.004 | [7] -0.031 | [8] -0.007 | [9] 0.02 | [10] -0.001

Additional results:

RCE1 (UniProt Q9Y256)
inactive: [1] 0.136 | [2] -0.15 | [3] 0.072 | [4] 0.15 | [5] 0.001 | [6] -0.115 | [7] 0.033 | [8] 0.019 | [9] -0.122 | [10] 0.068

RASSF7 (UniProt Q02833)
inactive: [1] -0.117 | [2] -0.004 | [4] 0.054 | [6] 0.034 | [7] -0.015 | [8] 0.037

REEP3 (UniProt Q6NUK4)
inactive: [1] 0.1 | [2] -0.031 | [4] 0.115 | [6] 0.069 | [7] -0.126 | [8] 0 | [9] 0.018 | [10] 0

RBM20 (UniProt Q5T481)
inactive: [1] 0.166 | [2] 0.163 | [3] 0.137 | [4] 0.038 | [5] 0.117 | [7] 0.055 | [10] 0.148
